From the supplement of paper PMC10849652
This is one part of the list.

Amino acid sequences for entries named in this document (tags omitted). A change or cut given only in a name is not applied to a line headed by its entry.
UniProt Q00059: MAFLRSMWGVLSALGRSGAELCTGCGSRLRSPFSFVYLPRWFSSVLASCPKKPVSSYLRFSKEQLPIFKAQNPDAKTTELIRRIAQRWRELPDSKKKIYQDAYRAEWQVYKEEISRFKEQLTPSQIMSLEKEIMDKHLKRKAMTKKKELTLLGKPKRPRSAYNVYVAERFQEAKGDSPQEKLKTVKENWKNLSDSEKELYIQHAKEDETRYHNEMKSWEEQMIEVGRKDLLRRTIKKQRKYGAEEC
UniProt Q13488, whole entry, looked up: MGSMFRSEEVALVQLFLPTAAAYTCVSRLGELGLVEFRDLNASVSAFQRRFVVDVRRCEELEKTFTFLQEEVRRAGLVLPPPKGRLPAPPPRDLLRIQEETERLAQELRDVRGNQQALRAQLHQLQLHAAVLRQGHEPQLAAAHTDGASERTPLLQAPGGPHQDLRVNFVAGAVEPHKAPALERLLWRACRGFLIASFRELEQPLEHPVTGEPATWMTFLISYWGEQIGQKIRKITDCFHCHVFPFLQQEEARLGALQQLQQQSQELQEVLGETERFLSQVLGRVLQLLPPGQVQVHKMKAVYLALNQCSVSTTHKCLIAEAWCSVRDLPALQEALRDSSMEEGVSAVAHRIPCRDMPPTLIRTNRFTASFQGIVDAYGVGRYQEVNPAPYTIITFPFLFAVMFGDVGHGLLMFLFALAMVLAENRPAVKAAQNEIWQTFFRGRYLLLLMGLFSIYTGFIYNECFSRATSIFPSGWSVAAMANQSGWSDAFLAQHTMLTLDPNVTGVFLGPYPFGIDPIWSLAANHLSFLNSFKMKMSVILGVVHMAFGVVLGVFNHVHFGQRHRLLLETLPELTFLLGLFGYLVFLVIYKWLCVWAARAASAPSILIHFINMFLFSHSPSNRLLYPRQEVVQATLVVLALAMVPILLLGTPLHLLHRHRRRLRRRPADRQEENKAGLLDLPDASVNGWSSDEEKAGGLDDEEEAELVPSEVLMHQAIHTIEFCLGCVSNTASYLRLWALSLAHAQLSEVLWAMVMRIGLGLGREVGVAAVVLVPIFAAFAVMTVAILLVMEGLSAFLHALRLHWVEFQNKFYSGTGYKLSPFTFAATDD
UniProt Q8WUA7: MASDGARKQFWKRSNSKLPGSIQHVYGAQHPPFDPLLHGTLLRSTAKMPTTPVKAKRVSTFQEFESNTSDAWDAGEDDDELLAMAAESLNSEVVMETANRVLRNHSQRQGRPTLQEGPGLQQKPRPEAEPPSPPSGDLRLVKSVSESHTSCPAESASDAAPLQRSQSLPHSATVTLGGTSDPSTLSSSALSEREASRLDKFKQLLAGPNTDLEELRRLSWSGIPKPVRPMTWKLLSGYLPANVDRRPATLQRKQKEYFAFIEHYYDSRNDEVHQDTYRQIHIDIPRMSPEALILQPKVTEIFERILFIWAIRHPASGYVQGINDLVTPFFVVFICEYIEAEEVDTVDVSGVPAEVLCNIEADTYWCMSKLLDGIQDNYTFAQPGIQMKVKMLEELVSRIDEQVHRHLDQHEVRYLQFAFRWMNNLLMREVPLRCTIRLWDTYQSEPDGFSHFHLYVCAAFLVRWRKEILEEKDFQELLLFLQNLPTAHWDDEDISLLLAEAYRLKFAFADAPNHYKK
UniProt Q14186: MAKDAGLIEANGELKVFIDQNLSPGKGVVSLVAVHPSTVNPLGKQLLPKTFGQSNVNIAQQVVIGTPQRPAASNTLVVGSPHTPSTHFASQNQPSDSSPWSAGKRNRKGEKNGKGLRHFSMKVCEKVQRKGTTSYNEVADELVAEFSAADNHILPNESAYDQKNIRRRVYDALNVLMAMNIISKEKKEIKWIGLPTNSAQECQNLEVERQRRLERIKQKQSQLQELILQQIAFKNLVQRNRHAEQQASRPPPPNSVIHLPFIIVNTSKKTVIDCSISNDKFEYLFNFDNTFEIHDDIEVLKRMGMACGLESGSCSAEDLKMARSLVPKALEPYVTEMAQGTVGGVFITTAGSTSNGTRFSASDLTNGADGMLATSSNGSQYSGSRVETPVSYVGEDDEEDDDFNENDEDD
UniProt Q96BZ9: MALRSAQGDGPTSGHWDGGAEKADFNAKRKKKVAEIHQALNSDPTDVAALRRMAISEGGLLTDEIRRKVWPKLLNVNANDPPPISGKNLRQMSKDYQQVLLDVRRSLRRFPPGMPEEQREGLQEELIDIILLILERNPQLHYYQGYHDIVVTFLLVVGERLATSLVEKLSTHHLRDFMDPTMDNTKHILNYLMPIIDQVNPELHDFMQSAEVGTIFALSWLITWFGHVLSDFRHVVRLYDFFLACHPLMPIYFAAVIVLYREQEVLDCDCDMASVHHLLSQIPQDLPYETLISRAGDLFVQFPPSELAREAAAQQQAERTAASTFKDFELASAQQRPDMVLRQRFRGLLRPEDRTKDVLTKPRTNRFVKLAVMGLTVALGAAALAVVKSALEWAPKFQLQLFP
UniProt Q12788: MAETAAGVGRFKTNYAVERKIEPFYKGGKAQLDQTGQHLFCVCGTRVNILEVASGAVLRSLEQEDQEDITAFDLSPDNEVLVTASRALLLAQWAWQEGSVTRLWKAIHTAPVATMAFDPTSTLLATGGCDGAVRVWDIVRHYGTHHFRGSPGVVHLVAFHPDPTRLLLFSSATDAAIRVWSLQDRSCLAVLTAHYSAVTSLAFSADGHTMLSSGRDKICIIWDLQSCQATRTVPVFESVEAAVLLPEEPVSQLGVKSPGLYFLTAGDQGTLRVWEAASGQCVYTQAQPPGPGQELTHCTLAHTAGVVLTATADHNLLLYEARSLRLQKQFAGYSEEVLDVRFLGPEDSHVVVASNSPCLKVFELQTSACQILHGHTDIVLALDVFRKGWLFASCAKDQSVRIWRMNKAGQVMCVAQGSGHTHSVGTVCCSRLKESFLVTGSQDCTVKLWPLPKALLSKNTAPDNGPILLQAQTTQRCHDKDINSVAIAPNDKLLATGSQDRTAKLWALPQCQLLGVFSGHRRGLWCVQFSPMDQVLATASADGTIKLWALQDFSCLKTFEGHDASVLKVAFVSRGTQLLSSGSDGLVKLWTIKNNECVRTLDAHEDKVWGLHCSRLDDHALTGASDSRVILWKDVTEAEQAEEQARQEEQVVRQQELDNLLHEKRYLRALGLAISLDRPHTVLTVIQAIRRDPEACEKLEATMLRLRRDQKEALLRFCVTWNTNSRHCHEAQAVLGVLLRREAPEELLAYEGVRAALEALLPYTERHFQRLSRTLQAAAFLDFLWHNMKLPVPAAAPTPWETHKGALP
UniProt Q3MII6: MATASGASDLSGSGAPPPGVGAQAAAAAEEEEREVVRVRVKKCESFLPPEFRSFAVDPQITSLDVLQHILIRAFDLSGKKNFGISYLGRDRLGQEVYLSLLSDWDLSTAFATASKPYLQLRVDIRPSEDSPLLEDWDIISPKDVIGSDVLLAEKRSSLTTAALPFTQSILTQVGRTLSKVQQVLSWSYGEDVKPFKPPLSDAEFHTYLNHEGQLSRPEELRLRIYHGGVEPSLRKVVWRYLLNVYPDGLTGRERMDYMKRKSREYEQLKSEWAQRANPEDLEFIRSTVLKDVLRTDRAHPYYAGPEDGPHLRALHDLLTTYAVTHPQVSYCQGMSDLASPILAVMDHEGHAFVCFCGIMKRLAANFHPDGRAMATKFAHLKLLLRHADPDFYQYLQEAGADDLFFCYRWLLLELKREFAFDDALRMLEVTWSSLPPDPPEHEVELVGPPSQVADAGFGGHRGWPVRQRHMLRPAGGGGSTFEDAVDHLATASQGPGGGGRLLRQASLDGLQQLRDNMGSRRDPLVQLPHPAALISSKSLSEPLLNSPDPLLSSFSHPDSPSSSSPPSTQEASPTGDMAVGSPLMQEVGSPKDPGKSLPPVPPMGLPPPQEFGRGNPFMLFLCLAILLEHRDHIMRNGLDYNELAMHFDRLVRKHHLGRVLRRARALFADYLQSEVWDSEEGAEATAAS
UniProt B5MCY1: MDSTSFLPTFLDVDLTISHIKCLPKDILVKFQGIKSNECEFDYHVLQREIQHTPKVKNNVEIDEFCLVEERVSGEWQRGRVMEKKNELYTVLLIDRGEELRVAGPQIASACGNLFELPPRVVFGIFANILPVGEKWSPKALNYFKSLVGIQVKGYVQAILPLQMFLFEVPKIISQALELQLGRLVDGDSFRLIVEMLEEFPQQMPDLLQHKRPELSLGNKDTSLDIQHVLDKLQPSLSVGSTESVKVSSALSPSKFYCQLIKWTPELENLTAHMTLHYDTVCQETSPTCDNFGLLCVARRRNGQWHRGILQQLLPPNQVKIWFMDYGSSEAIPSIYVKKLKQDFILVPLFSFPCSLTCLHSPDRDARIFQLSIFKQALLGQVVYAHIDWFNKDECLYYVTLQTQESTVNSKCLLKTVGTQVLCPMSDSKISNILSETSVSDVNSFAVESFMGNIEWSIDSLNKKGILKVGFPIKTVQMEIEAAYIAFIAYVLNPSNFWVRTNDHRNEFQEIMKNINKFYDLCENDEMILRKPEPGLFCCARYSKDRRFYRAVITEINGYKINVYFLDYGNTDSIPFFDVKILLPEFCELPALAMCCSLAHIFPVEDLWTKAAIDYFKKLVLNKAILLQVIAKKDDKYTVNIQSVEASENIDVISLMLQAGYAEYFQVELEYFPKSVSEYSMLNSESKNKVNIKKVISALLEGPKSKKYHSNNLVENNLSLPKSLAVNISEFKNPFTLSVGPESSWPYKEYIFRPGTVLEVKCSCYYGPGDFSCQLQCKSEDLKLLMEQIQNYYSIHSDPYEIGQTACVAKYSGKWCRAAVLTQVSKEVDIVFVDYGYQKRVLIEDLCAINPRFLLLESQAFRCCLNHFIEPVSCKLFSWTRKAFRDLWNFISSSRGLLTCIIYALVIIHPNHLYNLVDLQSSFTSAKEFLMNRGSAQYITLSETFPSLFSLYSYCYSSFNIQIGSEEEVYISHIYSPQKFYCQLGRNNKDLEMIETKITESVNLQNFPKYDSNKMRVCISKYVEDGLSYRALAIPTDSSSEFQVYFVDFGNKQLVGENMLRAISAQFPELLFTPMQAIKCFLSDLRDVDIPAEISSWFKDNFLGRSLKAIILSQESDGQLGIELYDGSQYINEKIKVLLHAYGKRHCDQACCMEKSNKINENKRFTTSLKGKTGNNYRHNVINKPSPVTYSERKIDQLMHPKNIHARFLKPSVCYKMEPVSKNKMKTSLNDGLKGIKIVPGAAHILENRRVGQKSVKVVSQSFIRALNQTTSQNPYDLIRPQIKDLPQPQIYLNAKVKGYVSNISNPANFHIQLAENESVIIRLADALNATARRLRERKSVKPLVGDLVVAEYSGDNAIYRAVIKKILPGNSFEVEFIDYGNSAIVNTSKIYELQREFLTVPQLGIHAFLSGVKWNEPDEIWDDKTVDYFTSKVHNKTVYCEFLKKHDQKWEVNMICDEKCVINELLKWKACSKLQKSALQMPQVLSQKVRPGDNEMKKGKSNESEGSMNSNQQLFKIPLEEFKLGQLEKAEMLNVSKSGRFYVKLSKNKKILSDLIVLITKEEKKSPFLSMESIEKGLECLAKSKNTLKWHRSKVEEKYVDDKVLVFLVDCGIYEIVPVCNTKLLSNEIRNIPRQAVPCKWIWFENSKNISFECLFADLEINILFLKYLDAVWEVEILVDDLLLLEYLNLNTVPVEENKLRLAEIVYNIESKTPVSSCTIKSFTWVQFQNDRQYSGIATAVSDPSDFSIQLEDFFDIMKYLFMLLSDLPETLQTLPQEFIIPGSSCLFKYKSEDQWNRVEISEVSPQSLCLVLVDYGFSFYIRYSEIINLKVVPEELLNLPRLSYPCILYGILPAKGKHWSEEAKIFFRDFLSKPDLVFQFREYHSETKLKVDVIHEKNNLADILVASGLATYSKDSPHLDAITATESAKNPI
UniProt Q9BQ70: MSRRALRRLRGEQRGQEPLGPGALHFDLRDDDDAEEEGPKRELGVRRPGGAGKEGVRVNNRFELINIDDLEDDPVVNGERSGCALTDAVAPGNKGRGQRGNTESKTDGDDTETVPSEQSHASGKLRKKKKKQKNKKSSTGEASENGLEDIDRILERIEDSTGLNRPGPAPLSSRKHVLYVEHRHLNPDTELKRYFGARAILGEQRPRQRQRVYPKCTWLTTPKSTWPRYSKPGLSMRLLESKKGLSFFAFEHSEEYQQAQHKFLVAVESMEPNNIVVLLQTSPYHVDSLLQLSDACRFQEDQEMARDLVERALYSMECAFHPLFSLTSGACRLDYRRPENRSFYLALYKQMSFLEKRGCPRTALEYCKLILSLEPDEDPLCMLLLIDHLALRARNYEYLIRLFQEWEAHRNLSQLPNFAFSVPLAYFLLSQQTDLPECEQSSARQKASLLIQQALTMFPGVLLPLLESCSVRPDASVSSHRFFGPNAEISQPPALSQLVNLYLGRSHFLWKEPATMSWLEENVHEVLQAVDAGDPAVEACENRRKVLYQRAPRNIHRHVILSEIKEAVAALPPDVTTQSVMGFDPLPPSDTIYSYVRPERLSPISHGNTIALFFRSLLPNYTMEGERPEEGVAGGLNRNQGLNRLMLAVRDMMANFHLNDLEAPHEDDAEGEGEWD

The targets below were run with C1=CC=C(C=C1)[C@H](COC2=CC3=C(C=C2)NC(=O)N3)NC(=O)C4=CC=CN(C4=O)CC5=CC(=C(C=C5)F)F (assay: log2 fold change, soluble protein after heating vs DMSO (PISA); higher = thermal stabilisation; K562 cells, 10 uM, 30 min; active = over 0.2 and 3.5 SD of the protein, either way, in both replicates (recomputed)).
Procedure, shortened: (§1)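 K562 cells at 2×10^6 cells/mL were treated with 10 μM compound for 30 min. Aliquots were heated for 3 min across 48°C-58°C, pooled, and extracted in PBS with 0.5% NP-40 at 4°C; soluble protein was the supernatant after 21,000xg for 90 min. Soluble protein was quantified by TMTpro 16plex LC-MS/MS with channel sums equalised, and reported as log2 fold change in thermal stability against DMSO controls, with values from duplicates.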

Row | Target | log2 fold change
1 | TFDP2 (UniProt Q14188) | inactive: 0.124
2 | TFAM (UniProt Q00059) | inactive: 0.062
3 | TBC1D9 (UniProt Q6ZT07) | inactive: 0.171
4 | TCIRG1 (UniProt Q13488) | inactive: 0.063
5 | TFE3 (UniProt P19532) | inactive: -0.172
6 | TBC1D22A (UniProt Q8WUA7) | inactive: 0.021
7 | TFDP1 (UniProt Q14186) | inactive: 0.006
8 | TLE3 (UniProt Q04726) | inactive: 0.09
9 | THEM6 (UniProt Q8WUY1) | inactive: 0
10 | TFCP2 (UniProt Q12800) | inactive: 0.026
11 | TCF20 (UniProt Q9UGU0) | inactive: -0.008
12 | TBC1D20 isoform 3 (UniProt Q96BZ9) | inactive: 0.017
13 | TBL3 (UniProt Q12788) | inactive: 0.026
14 | THAP9 (UniProt Q9H5L6) | inactive: 0.093
15 | TDRD3 isoform 3 (UniProt Q9H7E2) | inactive: 0.099
16 | TBC1D25 (UniProt Q3MII6) | inactive: -0.043

These targets were tested with CC1=C(SC2=C1C(=N[C@H](C3=NN=C(N32)C)CC(=O)N)C4=CC=C(C=C4)Cl)C in the same assay as above.
Procedure, shortened: as §1

Row | Target | log2 fold change
17 | TFDP2 (UniProt Q14188) | inactive: -0.103
18 | TENM4 (UniProt Q6N022) | inactive: 0.05
19 | TFAM (UniProt Q00059) | inactive: -0.046
20 | THAP12 (UniProt O43422) | inactive: 0.438
21 | TCIRG1 (UniProt Q13488) | inactive: -0.241
22 | TBC1D22A (UniProt Q8WUA7) | inactive: 0.065
23 | TDRD15 (UniProt B5MCY1) | inactive: -0.022
24 | TIFA (UniProt Q96CG3) | inactive: -0.042
25 | TDP1 (UniProt Q9NUW8) | inactive: 0.068
26 | TFIP11 (UniProt Q9UBB9) | inactive: -0.356
27 | TCF3 isoform 2 (UniProt P15923) | inactive: 0.012
28 | TLE3 (UniProt Q04726) | inactive: -0.086
29 | TCF25 (UniProt Q9BQ70) | inactive: 0.046
30 | TGDS (UniProt O95455) | inactive: -0.205
31 | THEM6 (UniProt Q8WUY1) | inactive: 0.014
32 | TCEAL1 isoform 2 (UniProt Q15170) | inactive: 0.026
33 | TFCP2 (UniProt Q12800) | inactive: -0.061
34 | TCF20 (UniProt Q9UGU0) | inactive: 0.126
35 | TBC1D20 isoform 3 (UniProt Q96BZ9) | inactive: 0.069
36 | TBL3 (UniProt Q12788) | inactive: -0.019
37 | THAP9 (UniProt Q9H5L6) | inactive: 0.167
38 | TGM2 (UniProt A2A299) | inactive: -0.004
39 | TDRD7 (UniProt Q8NHU6) | inactive: 0.048
40 | TBC1D25 (UniProt Q3MII6) | inactive: 0.14
41 | TCAF2 (UniProt A6NFQ2) | inactive: -0.344
42 | TCF4 isoform 3 (UniProt P15884) | inactive: -0.005

What follows are targets tested with CC1=C2C(=CC=C1)N=C(N(C2=O)C3=CC=CC=C3C)CN4C=NC5=C(N=CN=C54)N in the same assay as above.
Procedure, shortened: as §1

Row | Target | log2 fold change
43 | TFAM (UniProt Q00059) | inactive: -0.018
44 | TBC1D9 (UniProt Q6ZT07) | inactive: 0.088
45 | TBC1D22A (UniProt Q8WUA7) | inactive: -0.026
46 | TDRD15 (UniProt B5MCY1) | inactive: 0.169
47 | TCEAL4 isoform 2 (UniProt Q96EI5) | inactive: -0.001
48 | TFDP1 (UniProt Q14186) | inactive: 0.004
49 | TIFA (UniProt Q96CG3) | inactive: 0.173
50 | TCF3 isoform 2 (UniProt P15923) | inactive: 0.106
51 | TBC1D14 (UniProt Q9P2M4) | inactive: -0.105
52 | TCF25 (UniProt Q9BQ70) | inactive: 0.204
53 | TGDS (UniProt O95455) | inactive: -0.001
54 | TLCD3A (UniProt Q8TBR7) | inactive: 0
55 | THEM6 (UniProt Q8WUY1) | inactive: -0.037
56 | TCEAL1 isoform 2 (UniProt Q15170) | inactive: -0.141
57 | TC2N (UniProt Q8N9U0) | inactive: 0.053
58 | TBC1D20 isoform 3 (UniProt Q96BZ9) | inactive: -0.021
59 | TBL3 (UniProt Q12788) | inactive: -0.068
60 | TDRD3 isoform 3 (UniProt Q9H7E2) | inactive: -0.02
61 | TGM2 (UniProt A2A299) | inactive: 0.16
62 | TDRD7 (UniProt Q8NHU6) | inactive: 0.051
63 | TBC1D25 (UniProt Q3MII6) | inactive: 0.125

The targets below were run with Cc1sc2c(c1C)C(c1ccc(Cl)cc1)=N[C@@H](CC(=O)OC(C)(C)C)c1nnc(C)n1-2 in the same assay as above.
Procedure, shortened: as §1

Row | Target | log2 fold change
64 | TFDP2 (UniProt Q14188) | inactive: -0.017
65 | TFAM (UniProt Q00059) | inactive: 0.108
66 | TBCK (UniProt Q8TEA7) | inactive: 0.05
67 | TCIRG1 (UniProt Q13488) | inactive: -0.241
68 | TFE3 (UniProt P19532) | inactive: 0.053
69 | TBC1D22A (UniProt Q8WUA7) | inactive: -0.006
70 | TET2 (UniProt Q6N021) | inactive: 0.01
71 | TDRD15 (UniProt B5MCY1) | inactive: 0.182
72 | TCEAL4 isoform 2 (UniProt Q96EI5) | inactive: 0.081
73 | TFDP1 (UniProt Q14186) | inactive: -0.088
74 | TCOF1 isoform 3 (UniProt Q13428) | inactive: -0.093
75 | TCF3 isoform 2 (UniProt P15923) | inactive: -0.152
76 | TBC1D14 (UniProt Q9P2M4) | inactive: -0.064
77 | TCF25 (UniProt Q9BQ70) | inactive: -0.028
78 | TGDS (UniProt O95455) | inactive: -0.032
79 | TLCD3A (UniProt Q8TBR7) | inactive: -0.066
80 | THEMIS2 (UniProt Q5TEJ8) | inactive: 0.165
81 | THEM6 (UniProt Q8WUY1) | inactive: -0.037
82 | TCEAL1 isoform 2 (UniProt Q15170) | inactive: 0.054
83 | TEDC2 (UniProt Q7L2K0) | inactive: 0.006
84 | TC2N (UniProt Q8N9U0) | inactive: 0.08
85 | TBL3 (UniProt Q12788) | inactive: 0.016
86 | TGM2 (UniProt A2A299) | inactive: 0.247
87 | TCF4 isoform 3 (UniProt P15884) | inactive: -0.18
